Measurements published in US20220268780A1, “METHODS OF PREDICTING ENDOMETRIAL RECEPTIVITY” (HUDSON INSTITUTE OF MEDICAL RESEARCH, priority 2019, published 2022).

B1: Angiotensin-converting enzyme (protein, UniProt P12821 30-1306, looked up)
Angiotensin-converting enzyme: LDPGLQPGNFSADEAGAQLFAQSYNSSAEQVLFQSVAASWAHDTNITAENARRQEEAALLSQEFAEAWGQKAKELYEPIWQNFTDPQLRRIIGAVRTLGSANLPLAKRQQYNALLSNMSRIYSTAKVCLPNKTATCWSLDPDLTNILASSRSYAMLLFAWEGWHNAAGIPLKPLYEDFTALSNEAYKQDGFTDTGAYWRSWYNSPTFEDDLEHLYQQLEPLYLNLHAFVRRALHRRYGDRYINLRGPIPAHLLGDMWAQSWENIYDMVVPFPDKPNLDVTSTMLQQGWNATHMFRVAEEFFTSLELSPMPPEFWEGSMLEKPADGREVVCHASAWDFYNRKDFRIKQCTRVTMDQLSTVHHEMGHIQYYLQYKDLPVSLRRGANPGFHEAIGDVLALSVSTPEHLHKIGLLDRVTNDTESDINYLLKMALEKIAFLPFGYLVDQWRWGVFSGRTPPSRYNFDWWYLRTKYQGICPPVTRNETHFDAGAKFHVPNVTPYIRYFVSFVLQFQFHEALCKEAGYEGPLHQCDIYRSTKAGAKLRKVLQAGSSRPWQEVLKDMVGLDALDAQPLLKYFQPVTQWLQEQNQQNGEVLGWPEYQWHPPLPDNYPEGIDLVTDEAEASKFVEEYDRTSQVVWNEYAEANWNYNTNITTETSKILLQKNMQIANHTLKYGTQARKFDVNQLQNTTIKRIIKKVQDLERAALPAQELEEYNKILLDMETTYSVATVCHPNGSCLQLEPDLTNVMATSRKYEDLLWAWEGWRDKAGRAILQFYPKYVELINQAARLNGYVDAGDSWRSMYETPSLEQDLERLFQELQPLYLNLHAYVRRALHRHYGAQHINLEGPIPAHLLGNMWAQTWSNIYDLVVPFPSAPSMDTTEAMLKQGWTPRRMFKEADDFFTSLGLLPVPPEFWNKSMLEKPTDGREVVCHASAWDFYNGKDFRIKQCTTVNLEDLVVAHHEMGHIQYFMQYKDLPVALREGANPGFHEAIGDVLALSVSTPKHLHSLNLLSSEGGSDEHDINFLMKMALDKIAFIPFSYLVDQWRWRVFDGSITKENYNQEWWSLRLKYQGLCPPVPRTQGDFDPGAKFHIPSSVPYIRYFVSFIIQFQFHEALCQAAGHTGPLHKCDIYQSKEAGQRLATAMKLGFSRPWPEAMQLITGQPNMSASAMLSYFKPLLDWLRTENELHGEKLGWPQYNWTPNSARSEGPLPDSGRVSFLGLDLDAQQARVGQWLLLFLGIALLVATLGLSQRLFSIRHRSLHRHSHGPQFGSEVELRHS
B2: Plasma membrane calcium-transporting ATPase 4 (protein, UniProt P23634 1-1241, looked up)
Plasma membrane …: MTNPSDRVLPANSMAESREGDFGCTVMELRKLMELRSRDALTQINVHYGGVQNLCSRLKTSPVEGLSGNPADLEKRRQVFGHNVIPPKKPKTFLELVWEALQDVTLIILEIAAIISLVLSFYRPAGEENELCGQVATTPEDENEAQAGWIEGAAILFSVIIVVLVTAFNDWSKEKQFRGLQCRIEQEQKFSIIRNGQLIQLPVAEIVVGDIAQVKYGDLLPADGILIQGNDLKIDESSLTGESDHVKKSLDKDPMLLSGTHVMEGSGRMVVTAVGVNSQTGIILTLLGVNEDDEGEKKKKGKKQGVPENRNKAKTQDGVALEIQPLNSQEGIDNEEKDKKAVKVPKKEKSVLQGKLTRLAVQIGKAGLLMSALTVFILILYFVIDNFVINRRPWLPECTPIYIQYFVKFFIIGITVLVVAVPEGLPLAVTISLAYSVKKMMKDNNLVRHLDACETMGNATAICSDKTGTLTMNRMTVVQAYIGGIHYRQIPSPDVFLPKVLDLIVNGISINSAYTSKILPPEKEGGLPRQVGNKTECALLGFVTDLKQDYQAVRNEVPEEKLYKVYTFNSVRKSMSTVIRNPNGGFRMYSKGASEIILRKCNRILDRKGEAVPFKNKDRDDMVRTVIEPMACDGLRTICIAYRDFDDTEPSWDNENEILTELTCIAVVGIEDPVRPEVPDAIAKCKQAGITVRMVTGDNINTARAIATKCGILTPGDDFLCLEGKEFNRLIRNEKGEVEQEKLDKIWPKLRVLARSSPTDKHTLVKGIIDSTVGEHRQVVAVTGDGTNDGPALKKADVGFAMGIAGTDVAKEASDIILTDDNFTSIVKAVMWGRNVYDSISKFLQFQLTVNVVAVIVAFTGACITQDSPLKAVQMLWVNLIMDTFASLALATEPPTESLLKRRPYGRNKPLISRTMMKNILGHAFYQLIVIFILVFAGEKFFDIDSGRKAPLHSPPSQHYTIVFNTFVLMQLFNEINSRKIHGEKNVFSGIYRNIIFCSVVLGTFICQIFIVEFGGKPFSCTSLSLSQWLWCLFIGIGELLWGQFISAIPTRSLKFLKEAGHGTTKEEITKDAEGLDEIDHAEMELRRGQILWFRGLNRIQTQIDVINTFQTGASFKGVLRRQNMGQHLDVKLVPSSSYIKVVKAFHSSLHESIQKPYNQKSIHSFMTHPEFAIEEELPRTPLLDEEEEENPDKASKFGTRVLLLDGEVTPYANTNNNAVDCNQVQLPQSDSSLQSLETSV
B3: Adenosylhomocysteinase (protein, UniProt P23526 2-432, looked up)
Adenosylhomocysteinase: SDKLPYKVADIGLAAWGRKALDIAENEMPGLMRMRERYSASKPLKGARIAGCLHMTVETAVLIETLVTLGAEVQWSSCNIFSTQDHAAAAIAKAGIPVYAWKGETDEEYLWCIEQTLYFKDGPLNMILDDGGDLTNLIHTKYPQLLPGIRGISEETTTGVHNLYKMMANGILKVPAINVNDSVTKSKFDNLYGCRESLIDGIKRATDVMIAGKVAVVAGYGDVGKGCAQALRGFGARVIITEIDPINALQAAMEGYEVTTMDEACQEGNIFVTTTGCIDIILGRHFEQMKDDAIVCNIGHFDVEIDVKWLNENAVEKVNIKPQVDRYRLKNGRRIILLAEGRLVNLGCAMGHPSFVMSNSFTNQVMAQIELWTHPDKYPVGVHFLPKKLDEAVAEAHLGKLNVKLTKLTEKQAQYLGMSCDGPFKPDHYRY
B4: Calreticulin (protein, UniProt P27797 18-417, looked up)
Calreticulin: EPAVYFKEQFLDGDGWTSRWIESKHKSDFGKFVLSSGKFYGDEEKDKGLQTSQDARFYALSASFEPFSNKGQTLVVQFTVKHEQNIDCGGGYVKLFPNSLDQTDMHGDSEYNIMFGPDICGPGTKKVHVIFNYKGKNVLINKDIRCKDDEFTHLYTLIVRPDNTYEVKIDNSQVESGSLEDDWDFLPPKKIKDPDASKPEDWDERAKIDDPTDSKPEDWDKPEHIPDPDAKKPEDWDEEMDGEWEPPVIQNPEYKGEWKPRQIDNPDYKGTWIHPEIDNPEYSPDPSIYAYDNFGVLGLDLWQVKSGTIFDNFLITNDEAYAEEFGNETWGVTKAAEKQMKDKQDEEQRLKEEEEDKKRKEEEEAEDKEDDEDKDEDEEDEEDKEEDEEEDVPGQAKDEL
B5: Ras-related protein Rab-5C (protein, UniProt P51148 1-216, looked up)
Ras-related protein Rab-5C: MAGRGGAARPNGPAAGNKICQFKLVLLGESAVGKSSLVLRFVKGQFHEYQESTIGAAFLTQTVCLDDTTVKFEIWDTAGQERYHSLAPMYYRGAQAAIVVYDITNTDTFARAKNWVKELQRQASPNIVIALAGNKADLASKRAVEFQEAQAYADDNSLLFMETSAKTAMNVNEIFMAIAKKLPKNEPQNATGAPGRNRGVDLQENNPASRSQCCSN

System: human endometrial epithelial cells (HEECs)
Test: LC-MS/MS analysis of plasma membrane-enriched proteins of HEECs
Conditions: for Total unique peptides, Samples 1: sample 1, proliferative phase; for Total unique peptides, Samples 2: sample 2, proliferative phase; for Total unique peptides, Samples 3: sample 3, proliferative phase

Molecule	Total unique peptides, Samples 1	Total unique peptides, Samples 2	Total unique peptides, Samples 3
B1	2	1	2
B2	7	7	4
B3	4	6	6
B4	5	5	4
B5	2	1	1
